Source: the supplement of paper PMC8728848
This is one part of the list.

What was measured:
Assay in all cases: glycan array binding signal (z-score within array); higher = stronger binding
Details in all cases: glycan notation: IUPAC condensed, linker removed
[1] = biological target: Neu5Ac(a2-8)Neu5Ac
Outline: (§1)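 The binding signal is a Z-score computed within each array. Data were drawn from 3228 arrays in the Consortium for Functional Glycomics database, restricted to those with a known protein sequence. Scores were averaged over arrays of the same protein sequence at different concentrations or buffers, and over linkers, and negative values can be taken as non-binding.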

[2] = biological target: Neu5Ac(a2-8)Neu5Ac(a2-3)Gal(b1-4)Glc
Outline: as §1

[3] = biological target: Neu5Ac(a2-8)Neu5Ac(a2-3)[GalNAc(b1-4)]Gal(b1-4)Glc
Outline: as §1

[4] = biological target: Neu5Ac(a2-8)Neu5Ac(a2-8)Neu5Ac
Outline: as §1

[5] = biological target: Neu5Ac(a2-8)Neu5Ac(a2-8)Neu5Ac(a2-3)Gal(b1-4)Glc
Outline: as §1

[6] = biological target: Neu5Ac(a2-8)Neu5Ac(a2-8)Neu5Ac(a2-3)[GalNAc(b1-4)]Gal(b1-4)Glc
Outline: as §1

[7] = biological target: Neu5Ac(a2-8)Neu5Ac(a2-8)Neu5Ac(a2-8)Neu5Ac(a2-3)[GalNAc(b1-4)]Gal(b1-4)Glc
Outline: as §1

[8] = biological target: Neu5Ac(b2-6)Gal(b1-4)GlcNAc
Outline: as §1

[9] = biological target: Neu5Ac(b2-6)GalNAc
Outline: as §1

[10] = biological target: Neu5Ac9Ac(a2-3)Gal(b1-3)GlcNAc
Outline: as §1

[11] = biological target: Neu5Ac9Ac(a2-3)Gal(b1-4)GlcNAc
Outline: as §1

[12] = biological target: Neu5Ac9Ac(a2-6)Gal(b1-4)GlcNAc
Outline: as §1

[13] = biological target: Neu5Gc(a2-3)Gal(b1-3)GlcNAc
Outline: as §1

[14] = biological target: Neu5Gc(a2-3)Gal(b1-3)[Fuc(a1-4)]GlcNAc
Outline: as §1

[15] = biological target: Neu5Gc(a2-3)Gal(b1-4)Glc
Outline: as §1

[16] = biological target: Neu5Gc(a2-3)Gal(b1-4)GlcNAc
Outline: as §1

[17] = biological target: Neu5Gc(a2-3)Gal(b1-4)[Fuc(a1-3)]GlcNAc
Outline: as §1

[18] = biological target: Neu5Gc(a2-6)Gal(b1-4)GlcNAc
Outline: as §1

[19] = biological target: Neu5Gc(a2-6)GalNAc
Outline: as §1

[20] = biological target: Neu5Gc(b2-6)Gal(b1-4)GlcNAc
Outline: as §1

B1: SspB (Streptococcus gordonii), P16952 (protein)
chain: MKNKKEVYGFRKSKVAKTLCGAVLGTALIAFADKAVFADEVTETTSTSTVEVATTGNPATNLPEAQGEMSQVAKESQAKAGSKESALPVEVSSADLDKAVADAKSAGVKVVQDETKDKGTATTATDNAQKQDEIKSDYAKQAEEIKTTTEAYKKEVAAHQAETDKINAENKAADDKYQKDLKSHQEEVEKINTANATAKAEYEAKLAQYQKDLATVKKANEDSQQDYQNKLSAYQTELARVQKANAEAKEAYEKAVKENTAKNEALKVENEAIKQRNETAKATYEAAMKQYEADLAAIKKANEDNDADYQAKLAAYQTELARVQKANAEAKEAYDKAVKENTAKNTAIQAENEAIKQRNETAKATYDAAVKKYEADLAAVKQANATNEADYQAKLAAYQTELARVQKANADAKATYEKAVEDNKAKNAAIKAENEEIKQRNAVAKTDYEAKLAKYEADLAKYKKEFAAYTAALAEAESKKKQDGYLSEPRSQSLNFKSEPNAIRTIDSSVHQYGQQELDALVKSWGISPTNPDRKKSRAYSYFNAINSNNTYAKLVLEKDKPVDVTYTGLKNSSFNGKKISKVVYTYTLKETGFNDGTKMTMFASSDPTVTAWYNDYFTSTNINVKVKFYDEEGQLMNLTGGLVNFSSLNRGNGSGAIDKDAIESVRNFNGRYIPISGSSIKIHENNSAYADSSNAEKSLGARWNTSEWDTTSSPNNWYGAIVGEITQSEISFNMASSKSGNIWFAFNSNINAIGVPTKPVAPTAPTQPMYETEKPLEPAPVAPSYENEPTPPVKTPDQPEPSKPEEPTYETEKPLEPAPVAPSYENEPTPPVKTPDQPEPSKPEEPNYETEKPLEPAPVAPSYENEPTPPVKIPDQPEPSKPEEPTYDPLPTPPLAPTPKQLPTPPVVPTVHFHYSSLLAQPQINKEIKNEDGVDIDRTLVAKQSIVKFELKTEALTAGRPKTTSFVLVDPLPTGYKFDLDATKAASTGFDTTYDEASHTVTFKATDETLATYNADLTKPVETLHPTVVGRVLNDGATYTNNFTLTVNDAYGIKSNVVRVTTPGKPNDPDNPNNNYIKPTKVNKNKEGLNIDGKEVLAGSTNYYELTWDLDQYKGDKSSKEAIQNGFYYVDDYPEEALDVRPDLVKVADEKGNQVSGVSVQQYDSLEAAPKKVQDLLKKANITVKGAFQLFSADNPEEFYKQYVATGTSLVITDPMTVKSEFGKTGGKYENKAYQIDFGNGYATEVVVNNVPKITPKKDVTVSLDPTSENLDGQTVQLYQTFNYRLIGGLIPQNHSEELEDYSFVDDYDQAGDQYTGNYKTFSSLNLTMKDGSVIKAGTDLTSQTTAETDATNGIVTVRFKEDFLQKISLDSPFQAETYLQMRRIAIGTFENTYVNTVNKVAYASNTVRTTTPIPRTPDKPTPIPTPKPKDPDKPETPKEPKVPSPKVEDPSAPIPVSVGKELTTLPKTGTNDATYMPYLGLAALVGFLGLGLAKRKED
glycan array binding signal (z-score) [1]: 0.392
glycan array binding signal (z-score) [2]: 2
glycan array binding signal (z-score) [3]: -0.488
glycan array binding signal (z-score) [4]: -0.247
glycan array binding signal (z-score) [5]: 2.25
glycan array binding signal (z-score) [6]: 2.4
glycan array binding signal (z-score) [7]: 0.061
glycan array binding signal (z-score) [8]: -0.067
glycan array binding signal (z-score) [9]: -0.187
glycan array binding signal (z-score) [10]: 0.606
glycan array binding signal (z-score) [11]: 0.771
glycan array binding signal (z-score) [12]: -0.919
glycan array binding signal (z-score) [13]: 0.179
glycan array binding signal (z-score) [14]: 1.09
glycan array binding signal (z-score) [15]: 1.03
glycan array binding signal (z-score) [16]: -0.643
glycan array binding signal (z-score) [17]: -1.54
glycan array binding signal (z-score) [18]: -1.37
glycan array binding signal (z-score) [19]: -0.438
glycan array binding signal (z-score) [20]: -0.303
